Test results published in paper PMC6453939.
Results are given in words; binding and its absence hold for the method and conditions named. Binding seen in cells or lysates may run through a third protein. Binding calls can cover weak binding; strength is not graded here. Sequences can lack the tags named with a protein. One block for each molecule: values may come before it.

Protein sequences, listed by entry. Tags and fused reporters are not part of them. Lines headed by an entry give the natural chain unless they say otherwise; changes in a name come on top.
UniProt Q7Z7G8: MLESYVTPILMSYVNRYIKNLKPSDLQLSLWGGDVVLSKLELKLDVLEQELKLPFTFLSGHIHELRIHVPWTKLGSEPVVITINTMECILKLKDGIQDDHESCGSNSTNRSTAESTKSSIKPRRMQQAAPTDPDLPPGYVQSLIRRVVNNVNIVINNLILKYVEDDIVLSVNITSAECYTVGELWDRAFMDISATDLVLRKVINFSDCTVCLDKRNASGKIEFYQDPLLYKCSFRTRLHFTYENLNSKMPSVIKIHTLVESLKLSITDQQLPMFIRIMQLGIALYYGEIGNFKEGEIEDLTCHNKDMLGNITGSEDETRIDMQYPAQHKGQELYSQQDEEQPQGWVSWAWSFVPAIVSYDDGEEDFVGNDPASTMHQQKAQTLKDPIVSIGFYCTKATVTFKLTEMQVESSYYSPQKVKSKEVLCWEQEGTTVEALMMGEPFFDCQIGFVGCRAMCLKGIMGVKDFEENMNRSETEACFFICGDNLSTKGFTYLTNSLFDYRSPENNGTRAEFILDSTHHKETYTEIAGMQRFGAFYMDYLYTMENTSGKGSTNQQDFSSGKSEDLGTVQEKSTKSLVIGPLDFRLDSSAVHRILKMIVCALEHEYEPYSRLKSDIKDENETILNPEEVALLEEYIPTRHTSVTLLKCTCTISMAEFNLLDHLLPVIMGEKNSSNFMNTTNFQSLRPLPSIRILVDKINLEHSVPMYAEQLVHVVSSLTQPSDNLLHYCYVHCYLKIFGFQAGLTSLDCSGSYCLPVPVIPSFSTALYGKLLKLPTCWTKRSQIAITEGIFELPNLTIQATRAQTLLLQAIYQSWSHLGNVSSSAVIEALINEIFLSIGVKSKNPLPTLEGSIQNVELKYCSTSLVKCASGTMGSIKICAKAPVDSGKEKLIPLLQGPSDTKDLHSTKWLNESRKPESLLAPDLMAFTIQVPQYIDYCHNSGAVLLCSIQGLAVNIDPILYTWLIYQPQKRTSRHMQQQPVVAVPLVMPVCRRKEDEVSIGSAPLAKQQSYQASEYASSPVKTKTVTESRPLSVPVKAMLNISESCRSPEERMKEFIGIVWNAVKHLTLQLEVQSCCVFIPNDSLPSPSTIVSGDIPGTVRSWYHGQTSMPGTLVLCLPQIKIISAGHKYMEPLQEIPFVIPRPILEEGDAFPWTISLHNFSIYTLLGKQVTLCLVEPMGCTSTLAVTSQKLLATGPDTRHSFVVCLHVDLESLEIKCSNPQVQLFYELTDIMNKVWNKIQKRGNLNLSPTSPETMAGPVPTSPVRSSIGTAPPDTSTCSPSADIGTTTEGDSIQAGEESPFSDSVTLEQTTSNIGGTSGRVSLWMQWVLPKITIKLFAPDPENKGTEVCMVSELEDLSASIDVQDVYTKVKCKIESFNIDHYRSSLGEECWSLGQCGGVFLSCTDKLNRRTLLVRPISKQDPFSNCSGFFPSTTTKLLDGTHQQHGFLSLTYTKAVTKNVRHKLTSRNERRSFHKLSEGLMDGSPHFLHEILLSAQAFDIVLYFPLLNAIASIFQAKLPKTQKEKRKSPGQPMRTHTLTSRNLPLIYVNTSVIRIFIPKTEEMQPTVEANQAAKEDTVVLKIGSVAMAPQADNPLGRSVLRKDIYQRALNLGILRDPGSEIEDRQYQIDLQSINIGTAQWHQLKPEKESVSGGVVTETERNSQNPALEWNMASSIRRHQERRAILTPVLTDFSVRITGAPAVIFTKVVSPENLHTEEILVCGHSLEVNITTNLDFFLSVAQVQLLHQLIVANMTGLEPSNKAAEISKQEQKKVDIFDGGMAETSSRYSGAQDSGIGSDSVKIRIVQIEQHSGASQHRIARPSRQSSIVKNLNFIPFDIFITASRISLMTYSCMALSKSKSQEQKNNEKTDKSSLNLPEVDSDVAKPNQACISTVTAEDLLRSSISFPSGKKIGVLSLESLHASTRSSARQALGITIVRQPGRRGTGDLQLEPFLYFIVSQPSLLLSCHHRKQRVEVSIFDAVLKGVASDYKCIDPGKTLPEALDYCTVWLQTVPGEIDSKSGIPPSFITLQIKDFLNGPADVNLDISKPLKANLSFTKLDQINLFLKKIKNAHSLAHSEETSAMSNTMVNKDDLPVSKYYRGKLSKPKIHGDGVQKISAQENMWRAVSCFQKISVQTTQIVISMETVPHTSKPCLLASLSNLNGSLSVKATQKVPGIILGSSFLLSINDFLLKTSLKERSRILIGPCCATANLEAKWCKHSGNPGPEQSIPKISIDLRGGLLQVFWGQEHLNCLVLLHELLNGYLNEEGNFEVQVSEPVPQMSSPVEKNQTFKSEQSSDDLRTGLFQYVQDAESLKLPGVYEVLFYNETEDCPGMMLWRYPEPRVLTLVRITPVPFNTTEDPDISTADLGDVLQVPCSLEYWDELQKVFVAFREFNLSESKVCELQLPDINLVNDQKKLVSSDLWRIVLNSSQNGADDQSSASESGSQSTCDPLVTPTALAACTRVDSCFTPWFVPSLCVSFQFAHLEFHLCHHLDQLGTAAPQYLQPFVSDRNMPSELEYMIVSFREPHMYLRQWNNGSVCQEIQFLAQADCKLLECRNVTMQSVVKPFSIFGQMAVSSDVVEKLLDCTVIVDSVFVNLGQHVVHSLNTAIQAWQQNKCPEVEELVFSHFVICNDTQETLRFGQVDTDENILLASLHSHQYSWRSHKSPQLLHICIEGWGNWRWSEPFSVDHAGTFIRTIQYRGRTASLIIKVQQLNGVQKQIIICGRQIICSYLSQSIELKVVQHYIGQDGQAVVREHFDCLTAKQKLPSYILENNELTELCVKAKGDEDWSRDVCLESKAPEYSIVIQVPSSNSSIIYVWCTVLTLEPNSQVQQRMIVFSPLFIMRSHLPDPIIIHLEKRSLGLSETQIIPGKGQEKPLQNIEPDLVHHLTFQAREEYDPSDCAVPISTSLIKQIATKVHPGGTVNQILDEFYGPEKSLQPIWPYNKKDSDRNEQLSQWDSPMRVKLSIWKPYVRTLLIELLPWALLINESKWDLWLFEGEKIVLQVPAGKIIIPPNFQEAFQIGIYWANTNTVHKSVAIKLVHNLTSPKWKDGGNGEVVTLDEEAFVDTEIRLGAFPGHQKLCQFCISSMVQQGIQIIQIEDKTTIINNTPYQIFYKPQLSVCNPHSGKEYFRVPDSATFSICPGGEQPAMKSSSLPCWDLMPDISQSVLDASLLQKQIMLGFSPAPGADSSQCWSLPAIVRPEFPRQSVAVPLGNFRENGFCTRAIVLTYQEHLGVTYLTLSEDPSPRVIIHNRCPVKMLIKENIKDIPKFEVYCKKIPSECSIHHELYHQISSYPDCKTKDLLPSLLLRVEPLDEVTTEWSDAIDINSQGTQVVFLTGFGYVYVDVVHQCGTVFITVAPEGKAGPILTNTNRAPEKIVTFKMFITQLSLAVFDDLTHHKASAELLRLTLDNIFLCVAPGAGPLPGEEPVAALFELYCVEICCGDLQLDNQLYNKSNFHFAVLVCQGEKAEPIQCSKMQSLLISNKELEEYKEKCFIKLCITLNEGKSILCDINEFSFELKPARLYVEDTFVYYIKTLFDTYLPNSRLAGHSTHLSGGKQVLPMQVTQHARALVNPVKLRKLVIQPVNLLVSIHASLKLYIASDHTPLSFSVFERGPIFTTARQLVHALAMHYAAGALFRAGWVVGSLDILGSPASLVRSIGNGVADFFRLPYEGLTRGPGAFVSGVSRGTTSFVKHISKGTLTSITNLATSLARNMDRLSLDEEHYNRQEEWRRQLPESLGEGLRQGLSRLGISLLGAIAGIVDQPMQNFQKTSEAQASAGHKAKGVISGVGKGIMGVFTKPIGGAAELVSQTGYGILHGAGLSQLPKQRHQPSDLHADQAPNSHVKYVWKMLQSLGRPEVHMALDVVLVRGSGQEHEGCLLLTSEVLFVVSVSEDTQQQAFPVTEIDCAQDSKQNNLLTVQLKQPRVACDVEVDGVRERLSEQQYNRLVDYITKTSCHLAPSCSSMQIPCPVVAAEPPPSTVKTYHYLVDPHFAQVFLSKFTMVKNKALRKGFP

Molecular target: FLAG-tagged Vps13B (not stated (human or mouse cDNA cloned)) (UniProt Q7Z7G8)
Assay: co-IP; lysates of cells expressing Vps13B-FLAG and GFP-Stx13, GFP-ΔN-Stx13 or GFP-Stx13-Stx6 chimera; immunoprecipitated with anti-FLAG antibody, immunoblot for GFP

binding: no binding
Molecule: GFP-ΔN-Stx13 (Stx13 with the N-terminal domain truncated) (from UniProt G3V7P1) (domain or fragment)

binding: binds
B1: GFP-tagged Stx13 (protein, UniProt G3V7P1 1-274)
chain: MSYGPLDMYRNPGPSGPQPRDFNSIIQTCSGNIQRISQATAQIKNLMSQLGTKQDSSKLQENLQQFQHSTNQLAKETNELLKELGSLPLPLSASEQRQQKLQKERLMNDFSSALNNFQVVQRKVSEKEKESIARARAGSRLSAEDRQREEQLVSFDSHEEWNQMQSQEEEAAITEQDLELIKERETAIQQLEADILDVNQIFKDLAMMIHDQGDLIDSIEANVESSEVHVERASDQLQRAAYYQKKSRKKMCILVLVLSVIVTVLVVVIWVASK
